For the experiment, the target named is tripartite motif-containing 21 (TRIM21) (human (endogenous in PC-9)) (UniProt P19474). The experiment can be described thus: co-IP; PC-9 cell lysate; supernatants mixed overnight at 4 °C with anti-TRIM21 or anti-STAT1 antibody and protein A/G beads, then Western blot; also in PC-9 cells overexpressing or inhibiting tRF3a-MetCAT (Fig. 6I). (In western blotting, separated proteins are transferred to a membrane and probed.)

The chains behind the UniProt entries cited, without tags or fusion partners.
UniProt P19474: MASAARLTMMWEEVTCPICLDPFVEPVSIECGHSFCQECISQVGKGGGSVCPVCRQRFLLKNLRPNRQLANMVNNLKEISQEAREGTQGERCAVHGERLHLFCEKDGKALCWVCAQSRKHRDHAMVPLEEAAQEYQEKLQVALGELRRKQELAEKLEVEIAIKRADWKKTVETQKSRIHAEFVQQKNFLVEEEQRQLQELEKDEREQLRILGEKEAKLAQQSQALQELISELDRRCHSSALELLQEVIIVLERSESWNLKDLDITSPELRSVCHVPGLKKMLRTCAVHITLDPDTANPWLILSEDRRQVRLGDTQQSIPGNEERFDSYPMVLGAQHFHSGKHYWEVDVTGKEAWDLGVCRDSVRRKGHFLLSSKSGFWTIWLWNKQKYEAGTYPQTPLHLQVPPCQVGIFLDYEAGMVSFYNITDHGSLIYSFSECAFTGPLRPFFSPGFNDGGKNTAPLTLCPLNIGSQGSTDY
UniProt P42224: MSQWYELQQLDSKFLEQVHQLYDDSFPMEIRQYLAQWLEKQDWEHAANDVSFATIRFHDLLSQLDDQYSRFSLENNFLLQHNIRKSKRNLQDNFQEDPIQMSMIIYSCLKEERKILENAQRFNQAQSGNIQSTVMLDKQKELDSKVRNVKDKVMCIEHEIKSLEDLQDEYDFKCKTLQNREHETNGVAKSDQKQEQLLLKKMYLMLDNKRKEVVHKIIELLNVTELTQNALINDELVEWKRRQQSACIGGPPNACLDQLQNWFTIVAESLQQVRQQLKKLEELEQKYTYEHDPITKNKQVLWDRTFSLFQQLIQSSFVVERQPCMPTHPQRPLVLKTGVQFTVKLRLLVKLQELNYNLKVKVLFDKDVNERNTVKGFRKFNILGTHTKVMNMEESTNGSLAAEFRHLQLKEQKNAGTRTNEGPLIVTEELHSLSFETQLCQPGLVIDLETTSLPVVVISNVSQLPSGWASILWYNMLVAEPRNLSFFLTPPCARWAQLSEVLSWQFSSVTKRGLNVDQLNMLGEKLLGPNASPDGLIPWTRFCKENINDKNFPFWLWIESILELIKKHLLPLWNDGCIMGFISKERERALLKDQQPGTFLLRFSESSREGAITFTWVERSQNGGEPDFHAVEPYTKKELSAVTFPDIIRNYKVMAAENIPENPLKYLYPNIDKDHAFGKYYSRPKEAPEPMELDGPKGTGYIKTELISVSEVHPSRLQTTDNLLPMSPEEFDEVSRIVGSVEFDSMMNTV

Results are given in words; binding and its absence hold for the method and conditions named. Binding seen in cells or lysates may run through a third protein. Some entries that bind do so weakly or less than the wild type.

Regarding “signal transducer and activator of transcription 1 (STAT1) (from UniProt P42224 1-750)”, the binding entry is recorded as “binds”.

Values taken from publication PMC12501432.
